This is one part of the list.

Chains of the proteins cited; added tags and fusions are not shown.
UniProt Q0JBA9, entry or part of it: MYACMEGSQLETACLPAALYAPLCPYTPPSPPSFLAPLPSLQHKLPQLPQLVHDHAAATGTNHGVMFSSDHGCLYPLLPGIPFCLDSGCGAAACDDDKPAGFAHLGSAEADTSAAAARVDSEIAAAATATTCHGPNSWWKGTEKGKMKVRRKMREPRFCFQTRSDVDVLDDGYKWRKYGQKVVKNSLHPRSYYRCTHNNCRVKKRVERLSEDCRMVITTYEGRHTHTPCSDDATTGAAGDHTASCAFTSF

This assay deals with OsWRKY34 (Oryza sativa, UniProt Q0JBA9 1-250). In words: protein-binding microarray (RPBM); PBS, 2% BSA, 51.3 ng/ul salmon testes DNA, 50 uM zinc acetate, 200 nM TF, 25 C, 1 h; high values mean tight binding. The conditions noted are these: protein: recombinant; tags: N-terminal polyhistidine and DsRed monomer fusion (pET32a); label: CyDye5-dUTP incorporated in the synthesized complementary strand; 3' TTTTT single-stranded linker to array surface; dsDNA, one strand shown. Summed up: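 Transcription factors were made in E. coli BL21-CodonPlus as N-terminal fusions to a polyhistidine tag and DsRed, then purified on Ni–NTA. After primer extension with Cy5-dUTP and blocking with 2% BSA, a custom Agilent array was exposed for 1 h at 25 °C to 200 nM protein in PBS, 2% BSA, salmon testes DNA and 50 µM zinc acetate. Washed arrays were scanned on an Axon 4000B, and the binding signal is per-feature fluorescence intensity in arbitrary units.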
For “CGCGTAACCCACCCAATGTTTCACTCCTGCAGCACTTGACCGGAGTCACCTAGTGCAG”, the binding signal was 9370 fluorescence intensity (a.u.).
“ACTTCGTCCTGCTACCGCTTGTTGACACTAGCCTCCTCACCGGAGTCACCTAGTGCAG”: the binding signal is 9050 fluorescence intensity (a.u.).
The result for “ATTTTTCTCCACGGGCAACAGTACATCGCCTGTCTTCTCTCGGAGTCACCTAGTGCAG” reads 8050 fluorescence intensity (a.u.).
“GGGCAACTTCCACTTGTACTACAAACCCTCTTATCTCAGACGGAGTCACCTAGTGCAG”: the binding signal is 10100 fluorescence intensity (a.u.).
Consider “TCATTGCACCTCTCATTTAACAAGGGATATAATAGTTCTTCGGAGTCACCTAGTGCAG”, for which the binding signal was 8360 fluorescence intensity (a.u.).
In the case of “GCACACCAACTCGTCGATTCTTCCGGCAAATTCTTGCTTGCGGAGTCACCTAGTGCAG”, the binding signal was 8190 fluorescence intensity (a.u.).
As for “TCGTTGTGTTTCATAGTTGTTTCGCCACATGTTTTTGTCTCGGAGTCACCTAGTGCAG”, the binding signal is 11300 fluorescence intensity (a.u.).
For the sequence “GTCGTCGTCCATGCCGCTCGCCTCCTTTTCTCCACTGTCGCGGAGTCACCTAGTGCAG”, the binding signal was 10100 fluorescence intensity (a.u.).
On to “CCCATCGCATCCGCATCTCGGCATCTCGCGTCGCGACCCGCGGAGTCACCTAGTGCAG”, for which the binding signal is 10700 fluorescence intensity (a.u.).
Turning to “ACATGTCCTTTTACGCTTATTTTCTACAATAACAACTATACGGAGTCACCTAGTGCAG”, the binding signal is 9910 fluorescence intensity (a.u.).
To “ACAGCTTCGTTCTTGACTTAATTAGGTCATTTTTTTGCAACGGAGTCACCTAGTGCAG” belongs 11200 fluorescence intensity (a.u.); to “TTGATCTCAATCGCCGCCGCCGCCGCCGCCGCCGTCGCGGCGGAGTCACCTAGTGCAG”, 8260 fluorescence intensity (a.u.); to “TTTCTGTCATATGAAAGTCTTGGTCTTGGTCGTCTGCTCGCGGAGTCACCTAGTGCAG”, 11100 fluorescence intensity (a.u.).
For “AGTGATTTTCGGTTAGTCCCGTCTTTTTCCAATGTGTGTTCGGAGTCACCTAGTGCAG”, the binding signal is 8920 fluorescence intensity (a.u.).
In the case of “AGTTGGAGTTCTCATTTTAAAAGTGTATTGGTGTTCCTTTCGGAGTCACCTAGTGCAG”, the binding signal was 10400 fluorescence intensity (a.u.).
Turning to “CCGCTGTCGTCGTCTCGTCTCTGTGTGTGTGTCTCCATCACGGAGTCACCTAGTGCAG”, the binding signal is 8280 fluorescence intensity (a.u.).
“GGGAGAGCACGGGTGGGACGAGAGGGAGGAGGGGACTGGGCGGAGTCACCTAGTGCAG”: the binding signal is 12000 fluorescence intensity (a.u.).
Take “ATAGTTGGTGTGTTGATTTGCCGGGTCGATTAGATCTACCCGGAGTCACCTAGTGCAG”: the binding signal was 11200 fluorescence intensity (a.u.).
With “CACTACCCTCACCCCATCTTCGATCACCTTCCGCCTCCCGCGGAGTCACCTAGTGCAG”, the binding signal was 8090 fluorescence intensity (a.u.).
To “CGGCTGTGGATGTGTAGATGTAATTTTTTTTTTCAATCCTCGGAGTCACCTAGTGCAG” belongs 9930 fluorescence intensity (a.u.); to “TGGATCGTGGATGGACGGCGCCTATTTGATGTGGCTTTTCCGGAGTCACCTAGTGCAG”, 11100 fluorescence intensity (a.u.); to “GGTCATTCCTGTGTTTTGCAATCCTCTGTTTTTCCTGCTACGGAGTCACCTAGTGCAG”, 12000 fluorescence intensity (a.u.).
Regarding “TGTTTGTATGGGATTTTAGTGGGGTGTGGATTTTGACGGTCGGAGTCACCTAGTGCAG”, the binding signal was 9550 fluorescence intensity (a.u.).
In the case of “CTCTCTCTCAGTCTCTACTCCTAGCTCGAGCTCCAATCTCCGGAGTCACCTAGTGCAG”, the binding signal was 10700 fluorescence intensity (a.u.).
Turning to “CCACCAGTTCACCACCGCTGAAAGAATCAGCAGCAGCAGCCGGAGTCACCTAGTGCAG”, the binding signal is 8080 fluorescence intensity (a.u.).
“TTGGTTTGTTTGTTTATGGCGATCTGTTGTTTGCTAGTTGCGGAGTCACCTAGTGCAG”: the binding signal was 8810 fluorescence intensity (a.u.).
“AAAACCGCTTGTTTTTCGTTGCTGTACTCGTGTTGGAAGCCGGAGTCACCTAGTGCAG”: the binding signal was 9680 fluorescence intensity (a.u.).
The result for “GTCGGTGTCATCTCTCCTGCGAGCTACCGCGGCGGACATGCGGAGTCACCTAGTGCAG” reads 9180 fluorescence intensity (a.u.).
Turning to “CCCGCGTCTCGGCCCTCTCCGTCCTCGTTGCTTCCGACGCCGGAGTCACCTAGTGCAG”, the binding signal was 8780 fluorescence intensity (a.u.).
On to “TTTCTTACCACCTTTGCTTGGCTTTACACCTCTTGTATGCCGGAGTCACCTAGTGCAG”, for which the binding signal was 9420 fluorescence intensity (a.u.).
For “CGATTTATGTGCCGGGGAGTACCCTCACTCTCGAACAGAGCGGAGTCACCTAGTGCAG”, the binding signal was 13200 fluorescence intensity (a.u.).
Regarding “ACGTTTATTTCTTCTGTTGAAAAATGCGCAGTGCTTTTTCCGGAGTCACCTAGTGCAG”, the binding signal was 9960 fluorescence intensity (a.u.).
For the sequence “GGGCGGTGCTCCGTTGACCGTGATGGAGCCGTTCCAGTACCGGAGTCACCTAGTGCAG”, the binding signal is 12900 fluorescence intensity (a.u.).
For the sequence “CACATATTGATCTATTCTACTAAATTTTTTTTATGACTTTCGGAGTCACCTAGTGCAG”, the binding signal was 8630 fluorescence intensity (a.u.).
Consider “ATGTGTGTGTTTTTTAGCCGGTGCAATTAGATTTTTCATGCGGAGTCACCTAGTGCAG”, for which the binding signal is 11500 fluorescence intensity (a.u.).
As to “AACACCACCTGTCGCTGATTCCCTGCCGCATCTTCTCATCCGGAGTCACCTAGTGCAG”, the binding signal is 10600 fluorescence intensity (a.u.).
Take “ATATTCTTATACGTGCACTATTTCTATCCAACGTGGAATCCGGAGTCACCTAGTGCAG”: the binding signal was 9890 fluorescence intensity (a.u.).
Take “TACTCGTCTAGTTGATCACCTCTAACGTTATCATTTTCTTCGGAGTCACCTAGTGCAG”: the binding signal was 8160 fluorescence intensity (a.u.).
The result for “ATTGAATTTGTACAATATTCTTCCTGCTGTTTCGGATCCTCGGAGTCACCTAGTGCAG” reads 9840 fluorescence intensity (a.u.); that for “CTCCTCCTCCGTCTTCTTGCGGCCGCCTCGCCTGTTCTTGCGGAGTCACCTAGTGCAG”, 8580 fluorescence intensity (a.u.); that for “TTCTGCTTTGTAATCTTGTAAATGAATTCATATATTTTTACGGAGTCACCTAGTGCAG”, 8380 fluorescence intensity (a.u.).
With “ACAATTCCTACATCCATTTAACTATAATATTCATCCGATCCGGAGTCACCTAGTGCAG”, the binding signal is 8050 fluorescence intensity (a.u.).

Source of the values: PMC7819943, “Rice protein-binding microarrays: a tool to detect cis-acting elements near promoter regions in rice”.
